Measurements reported in PubChem BioAssay AID1347076 (National Center for Advancing Translational Sciences (NCATS), 2019).
In all, about 400,000 compounds went through this assay and about 13,000 (3.2%) were called active. Inconclusive means that the source gave no clear call. Such entries were picked first, then a sample of the others. The call rests on the fitted dose curve; in most records, active means well fitted cell-killing curve with a large enough effect; inconclusive means small, poorly fitted or top-dose-only effect, or effect the other way; inactive means flat fitted curve, though single readings scatter. A potency beside an inconclusive call is a rough fit, not a confirmed value.

test: qHTS assay for MDR1-selective chemotherapeutics: Primary screen using the drug-selected MDR subline cells KB-V1; settings: KB-V1 MDR cells viability, CellTiter-Glo, 72 h; activity change, negative = cytotoxicity: at 46.1 µM (top of the series); further: nearly all actives have a fitted effect of over 60% in size
Method in brief: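 Cytotoxicity toward P-gp-expressing KB-V1 cells was determined as loss of CellTiter-Glo luminescence after 72 h at 37 degrees C. Compounds were tested in quantitative HTS format across a concentration range, with curves fitted to normalized data.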
On the % scale 0 is the no-effect control and ±100 the full control effect; potency means the concentration at half of the fitted maximal effect.

Q: With `O=C(Nc1cnccn1)c1ccncc1` as the molecule, how does the “activity change, negative = cytotoxicity” value read?
A: Its value is inactive: -0.642%.

Q: Which Potency does the source give for `CC1Cc2ccccc2N1C(=O)CSc1nc(-c2ccccc2)cs1` (stereo not given) here?
A: The Potency was inconclusive: 29.1 µM [cytotoxic, single point].

Q: Which Potency does the source give for `Cc1ccc(C)c(C(Nc2ccccc2)c2ccc3ccc(C)nc3c2O)c1` (stereo not given) here?
A: The Potency was inconclusive: 2.91 µM [cytotoxic, full curve].

Q: Which “activity change, negative = cytotoxicity” value does the source give for `Cc1cccc(OCc2ccc(-c3nc(C#N)c(N4CCC(C(N)=O)CC4)o3)o2)c1` here?
A: Its value is inactive: 0%.

Q: For `CC1CN(C(=O)CCC(=O)NCc2cccnc2)c2ccccc2O1` (stereo not given), which Potency is on record?
A: The Potency was inconclusive: 29.1 µM [cytotoxic, single point].

Q: For `Cc1ccc(-n2ncc3c(=O)[nH]c(SCC(=O)NCC4CCCO4)nc32)cc1` (stereo not given), which Potency is on record?
A: Its Potency is inconclusive: 29.1 µM [rising, single point].

Q: With `Cc1ccc(S(=O)(=O)NCC2CCC(C(=O)NCCCN3CCCC3=O)CC2)cc1` (stereo not given) as the molecule, how does the “activity change, negative = cytotoxicity” value read?
A: Its value is inactive: 2.82%.

Q: Which Potency does the source give for `O=C(Nc1ccn(CCCN2CCN(c3ccccc3)CC2)c(=O)n1)OCc1ccccc1` here?
A: Its Potency is inconclusive: 23.1 µM [cytotoxic, partial curve, poor fit].

Q: With `COc1ccc(OC)c(C(C)NC(=O)c2ccco2)c1` (stereo not given) as the molecule, how does the Potency read?
A: Its Potency is inconclusive: 29.1 µM [cytotoxic, single point].

Q: Which Potency does the source give for `Fc1ccc(NC(=S)NCc2cccs2)cc1` here?
A: Its Potency is active: 18.4 µM.

Q: Which Potency does the source give for `O=C(CN1C(=O)S/C(=C\c2cccc(Cl)c2)C1=O)NCCCn1ccnc1` here?
A: The Potency was inconclusive: 25.9 µM [rising, single point].

Q: With `COC1CCN(C(=O)C2CCC(=O)N(C3CCCCCC3)C2)CC1` (stereo not given) as the molecule, how does the “activity change, negative = cytotoxicity” value read?
A: Its value is inactive: 8.06%.

Q: For `O=C(CSc1nc(C(F)(F)F)cc(=O)[nH]1)Nc1nccs1`, which Potency is on record?
A: The Potency was inconclusive: 29.1 µM [rising, single point].

Q: With `COc1ccccc1OC(C)C(=O)Nc1ccccc1C(=O)NCc1cccnc1` (stereo not given) as the molecule, how does the Potency read?
A: Its Potency is inconclusive: 13 µM [cytotoxic, partial curve].

Q: For `CCOC(=O)COc1cccc2c(=O)n(CC(N)=O)ccc12`, which “activity change, negative = cytotoxicity” value is on record?
A: Its value is inactive: 4.08%.

Q: For `CCn1nc(NC(=O)Cc2ccc(OC)cc2)c2cc3cccc(C)c3nc21`, which “activity change, negative = cytotoxicity” value is on record?
A: The value was inactive: -1.41%.

Q: With `O=c1[nH]c(SCc2nc3ccccc3c(=O)n2-c2ccccc2C(F)(F)F)nc2ccccc12` as the molecule, how does the Potency read?
A: Its Potency is inconclusive: 3.26 µM [cytotoxic, partial curve, poor fit].

Q: Which “activity change, negative = cytotoxicity” value does the source give for `Cc1ccc(-c2csc3ncnc(SCC(=O)O)c23)cc1` here?
A: Its value is inactive: -16.9%.

Q: For `COC(=O)CCCCCN1C(=O)/C(=C\c2ccncc2)SC1=S`, which “activity change, negative = cytotoxicity” value is on record?
A: The value was inactive: -7.79%.

Q: With `CC(c1ccccc1)C(CC(=O)O)C(=O)Nc1ccc(Cl)c(Cl)c1` (stereo not given) as the molecule, how does the Potency read?
A: The Potency was inconclusive: 29.1 µM [rising, single point].

Q: With `COc1cc(C(=O)OCCCN=C2NS(=O)(=O)c3ccccc32)cc(OC)c1OC` as the molecule, how does the Potency read?
A: The Potency was inconclusive: 3.66 µM [rising, partial curve, poor fit].

Q: For `Cc1ccc(-c2nc3ncccc3o2)cc1NC(=O)COc1ccc(C(C)C)cc1`, which Potency is on record?
A: Its Potency is inconclusive: 18.4 µM [cytotoxic, partial curve, poor fit].

Q: For `CCOc1cc(/C=N\NC(=O)Cc2ccccc2)ccc1OCC(=O)Nc1ccc(C)c(C)c1`, which Potency is on record?
A: The Potency was inconclusive: 3.66 µM [cytotoxic, partial curve].

Q: With `COCCCNC(=O)CC(c1cc(OC)c(OC)c(OC)c1)N1Cc2ccccc2C1=O` (stereo not given) as the molecule, how does the “activity change, negative = cytotoxicity” value read?
A: Its value is inactive: 12.3%.

Q: Which “activity change, negative = cytotoxicity” value does the source give for `Nc1c(C(=O)Nc2ccc(Cl)cc2)sc2nc(N3CCOCC3)c3c(c12)CCCC3` here?
A: The value was inactive: 0.166%.

Q: For `COc1ccc(-n2ncc3c(=O)n(Cc4c(F)cccc4Cl)cnc32)cc1`, which Potency is on record?
A: Its Potency is inconclusive: 10.3 µM [cytotoxic, partial curve].

Q: With `COc1ccc(C2=NNC(=O)C2(C)Br)cc1` (stereo not given) as the molecule, how does the “activity change, negative = cytotoxicity” value read?
A: The value was inactive: -1.4%.

Q: Which Potency does the source give for `O=C1N[C@@H](c2ccccc2)COC(=O)[C@H](Cc2ccc(F)cc2)CC/C=C/C[C@@H]1CC(=O)N(CCO)Cc1ccccc1` here?
A: The Potency was inconclusive: 32.6 µM [cytotoxic, single point].

Q: For `COC(=O)c1sc(-c2ccc(Cl)cc2)cc1NC(=O)/C=C/C(=O)O`, which Potency is on record?
A: Its Potency is inconclusive: 13 µM [cytotoxic, single point].

Q: For `COCCCn1c(SCc2nc3ccccc3c(=O)[nH]2)nc2ccccc2c1=O`, which Potency is on record?
A: Its Potency is inconclusive: 5.8 µM [cytotoxic, partial curve].

Q: For `Cc1ccc(NS(=O)(=O)c2cccc(C(=O)N3CCCC(C)C3)c2)cc1` (stereo not given), which Potency is on record?
A: Its Potency is inconclusive: 13 µM [cytotoxic, partial curve].

Q: With `Cc1ccc(S(=O)(=O)/N=C(/Nc2ccc([N+](=O)[O-])cc2)c2ccccc2)cc1` as the molecule, how does the Potency read?
A: Its Potency is inconclusive: 29.1 µM [cytotoxic, single point].

Q: For `CCN1C(=O)c2cccc3c(S(=O)(=O)NCc4cccnc4)ccc1c23`, which Potency is on record?
A: Its Potency is inconclusive: 20.6 µM [cytotoxic, single point].

Q: For `Cn1c(NC(=O)c2ccccc2)nc2ccccc21`, which Potency is on record?
A: Its Potency is inconclusive: 18.4 µM [cytotoxic, single point].

Q: With `O=C1/C(=C\c2cc([N+](=O)[O-])ccc2O)SC(=S)N1Cc1ccc(Cl)cc1` as the molecule, how does the Potency read?
A: Its Potency is active: 23.1 µM.

Q: Which “activity change, negative = cytotoxicity” value does the source give for `COc1ccc(C)cc1NS(=O)(=O)c1ccc2c(c1)[C@H]1C=CC[C@H]1[C@@H](c1cccc(Cl)c1)N2` here?
A: The value was inactive: 9.02%.

Q: For `CN(C)S(=O)(=O)c1ccc2c(c1)c(=O)c(C(=O)NCCCN1CCCCCC1)cn2C`, which Potency is on record?
A: Its Potency is inconclusive: 29.1 µM [rising, single point].

Q: For `Cc1ccsc1C(=O)OCC(=O)N(Cc1ccccc1)C(C)C`, which “activity change, negative = cytotoxicity” value is on record?
A: Its value is inactive: 0.651%.

Q: For `CCCNC(=O)C1(C)CCCN(CC(=O)c2ccccc2OC)C1` (stereo not given), which “activity change, negative = cytotoxicity” value is on record?
A: Its value is inactive: 4.83%.

Q: For `C/C(=N\NC(=O)c1ccco1)c1cc2ccccc2o1`, which Potency is on record?
A: The Potency was inconclusive: 18.4 µM [cytotoxic, single point].

Q: Which “activity change, negative = cytotoxicity” value does the source give for `CCCOc1cccc(C(=O)NC(=S)Nc2ccc(N3CCN(C)CC3)cc2)c1` here?
A: Its value is inactive: -23.4%.

Q: Which Potency does the source give for `CCCCC(=O)NCCc1cc2c(OC)ccc(OC)c2[nH]c1=O` here?
A: Its Potency is inconclusive: 11.6 µM [cytotoxic, partial curve, poor fit].

Q: Which Potency does the source give for `Cc1ccc(NC(=O)c2ccccc2OCC(=O)c2ccc(F)cc2)cc1` here?
A: The Potency was inconclusive: 1.84 µM [cytotoxic, full curve].

Q: For `COc1ccccc1CCNC(=O)CCn1c(=O)c2cccn2c2ccc(F)cc21`, which “activity change, negative = cytotoxicity” value is on record?
A: The value was inactive: -6.9%.

Q: Which “activity change, negative = cytotoxicity” value does the source give for `C=CCN1CCN(C(=O)CSc2ccccc2)CC1` here?
A: The value was inactive: 13.1%.

Q: With `O=C(CCC1CCCN(C(=O)c2ccsc2)C1)NCc1ccc(F)c(F)c1` (stereo not given) as the molecule, how does the Potency read?
A: The Potency was inconclusive: 11.6 µM [cytotoxic, partial curve, poor fit].

Q: Which “activity change, negative = cytotoxicity” value does the source give for `CCNc1ccc(S(=O)(=O)C(F)(F)F)cc1NC(=O)C12CCC(CC1)C2` here?
A: Its value is inactive: -28.2%.

Q: Which “activity change, negative = cytotoxicity” value does the source give for `C/C(=N\N=C(N)N)c1cccc(Cl)c1` here?
A: Its value is inactive: -25.9%.

Q: For `O=S(=O)(Nc1cccc2ncccc12)c1cccs1`, which Potency is on record?
A: Its Potency is inconclusive: 1.16 µM [cytotoxic, full curve, poor fit].

Q: For `O=C(NCC1CCCO1)c1cncc(Br)c1` (stereo not given), which Potency is on record?
A: Its Potency is inconclusive: 29.1 µM [rising, single point].

Q: For `Cc1onc(-c2c(F)cccc2Cl)c1C(=O)OCC(=O)NC(c1ccccc1)c1ccccc1`, which Potency is on record?
A: Its Potency is active: 6.51 µM.

Q: For `CCN1C(=O)C(CC(=O)Nc2ccc(Cl)cc2)N(NC(=O)c2ccncc2)C1=S` (stereo not given), which Potency is on record?
A: The Potency was inconclusive: 29.1 µM [rising, partial curve, poor fit].

Q: Which Potency does the source give for `Cc1nccn1-c1ccc(NC(=O)[C@H]2O[C@@H](n3ccc(N)nc3=O)[C@H](O)[C@@H]2O)cc1` here?
A: The Potency was inconclusive: 29.1 µM [rising, partial curve, poor fit].

Q: For `CC1=C(C(=O)N(C(C)C)C(C)C)CC(CC(=O)NCc2cccs2)C(=O)N1CCC1=CCCCC1` (stereo not given), which Potency is on record?
A: The Potency was inconclusive: 18.4 µM [cytotoxic, single point].

Q: Which Potency does the source give for `Cc1sc2nc(SCC(=O)NCCO)n(C)c(=O)c2c1C` here?
A: Its Potency is inconclusive: 20.6 µM [cytotoxic, partial curve, poor fit].

Q: Which Potency does the source give for `COc1cc2c(cc1OC)CN(C(=O)CSC1=NCCS1)CC2` here?
A: Its Potency is inconclusive: 29.1 µM [cytotoxic, single point].

Q: With `Cc1ccc(NC(=O)c2ncn(CCCN(C)CCc3ccccn3)n2)cc1C` as the molecule, how does the “activity change, negative = cytotoxicity” value read?
A: The value was inactive: -3.64%.

Q: Which Potency does the source give for `C=CCOc1ccc(C2CC(C)=NN2c2ccccc2)cc1` (stereo not given) here?
A: The Potency was inconclusive: 29.1 µM [cytotoxic, single point].

Q: For `CCOC(=O)c1sc2cc([N+](=O)[O-])cc(SCC(=O)OC)c2c1N`, which Potency is on record?
A: The Potency was inconclusive: 14.6 µM [cytotoxic, partial curve].

Q: For `O=C(CNC(=O)c1ccc(Cl)cc1Cl)NCC1CCCO1` (stereo not given), which “activity change, negative = cytotoxicity” value is on record?
A: Its value is inactive: 9.17%.

Q: Which Potency does the source give for `CC1=C(C(=O)Nc2cc(C(=O)N3CCN(c4cccc(C)c4C)CC3)ccc2C)SCCO1` here?
A: Its Potency is inconclusive: 8.2 µM [cytotoxic, partial curve, poor fit].

Q: Which “activity change, negative = cytotoxicity” value does the source give for `Clc1ccc(-c2cn(-c3ccc(Cl)cc3)c3[n+]2CCCCC3)cc1` here?
A: The value was inactive: -4.38%.

Q: Which Potency does the source give for `Cn1c(N)c(C(=O)COC(=O)CNS(=O)(=O)c2cccc(Cl)c2)c(=O)n(C)c1=O` here?
A: The Potency was inconclusive: 29.1 µM [rising, single point].

Q: For `COc1ccc(Cc2c(-c3ccc(F)cc3)nc3c4ccccc4ccn23)c(C)c1`, which “activity change, negative = cytotoxicity” value is on record?
A: Its value is inactive: 10.7%.

Q: Which Potency does the source give for `COc1ccc(-c2nc(N)ncc2-c2ccccc2)c(O)c1` here?
A: Its Potency is inconclusive: 23.1 µM [cytotoxic, single point].

Q: For `COc1ccc(-n2nc3ccc(NC(=O)COc4ccc(C)c(C)c4)cc3n2)cc1`, which Potency is on record?
A: Its Potency is inconclusive: 29.1 µM [rising, single point].

Q: With `CCC(OC(=O)C1=Cc2ccccc2OC1)C(=O)NC1CCCC1` (stereo not given) as the molecule, how does the Potency read?
A: The Potency was inconclusive: 23.1 µM [cytotoxic, single point].

Q: With `CCc1ccccc1NC(=O)CN(Cc1ccccc1)S(=O)(=O)c1ccc2nc(C)sc2c1` as the molecule, how does the “activity change, negative = cytotoxicity” value read?
A: Its value is inactive: 5.25%.

Q: With `CCc1cccc(NC(=O)C2CCCN2S(=O)(=O)c2ccccc2C(F)(F)F)c1` (stereo not given) as the molecule, how does the Potency read?
A: Its Potency is inconclusive: 20.6 µM [cytotoxic, single point].

Q: For `CCCSc1nc(=O)c2c(n1C)NC(=O)CC2c1cccc(F)c1F` (stereo not given), which Potency is on record?
A: Its Potency is inconclusive: 32.6 µM [rising, single point].
